# In patent publication US9187784B2, “EphA4 is a disease modifier in motor neuron disease” (VIB VZW, priority 2011, dated 2015):
# At least one compound was matched to its structure with a doubt left.
# How the values were obtained:
# [1] = system: mutant SOD1-overexpressing fish; assay: mutant SOD1-induced motor axonopathy in zebrafish embryos (percentage affected embryos, motor axon length); type: in vivo; settings: SOD1A4V zebrafish embryos, 30 hpf
# Description: FIG. 1: EphA4 knockdown rescues mutant SOD1-induced motor axonopathy. […] Abnormal branching is indicated with arrowhead. Y-axes show motor axon length of zebrafish embryos expressing wild-type SOD1 (black bar, Panels D-G) or mutant SOD1 (white bar, Panels D-G). Knockdown of RTK2 in SOD1A4V- (Panel D), SOD1G93A- (Panel E) and SOD1G37R- (Panel F) expressing fish was established by co-injection of increasing amounts of atg-RTK2 morpholino (shaded bars). RTK1 expression was inhibited in SOD1A4V-expressing fish by co-injection of atg-RTK1 morpholino (shaded bars, Panel G). Ctr-RTK2 and ctr-RTK1 were used as control. ANOVA and Bonferroni's multiple comparison tests were used for statistical analysis. […]
# Effect of RTK2 knockdown (established by injection of atg-RTK2 morpholino) on the percentage of affected wild-type SOD1 or mutant SOD1 (A4V, G93A, G37R) zebrafish embryos (30 hpf). […] Significance of mtSOD1/ctr-RTK2 (4.5 ng) vs. mtSOD1/atg-RTK2 (4.5 ng) was determined by Mann-Whitney test, * p=0.0075, ° p=0.039 and # p=0.0052. […]
# [2] = system: zebrafish embryos with knockdown of Smn; assay: rescue of motor axon phenotype induced by knockdown of Smn (SMA model); type: in vivo
# Method: FIG. 14: Inhibiting EphA4 signaling rescues motor axonopathies induced by overexpression of mutant TDP-43 and knockdown of Smn. Y-axes show motor axon length of zebrafish embryos (30 hpf) expressing TDP^WT (black bar) or TDP^A315T (white bar) (Panels A, B) or with unaltered (black bar) or reduced expression levels of Smn (white bar) (Panels C, D). Smn knockdown was established by injection of 3 ng (Panel C) or 6 ng (Panel D) atg-smn morpholino. Ctr-smn morpholino was injected as control. RTK1 signaling was inhibited by injection of 3 ng atg-RTK1 morpholino (shaded bars) (Panels A, C) or by treatment with C1 (500 μM, shaded bars) (Panels B, D). Injection of ctr-RTK1 morpholino and application of a 1/250 dilution of DMSO were used as control. […]
# A morpholino database of translation-blocking morpholinos (atg-mo) was used to perform a morpholino-based knockdown screening in a zebrafish model for ALS.^13 The standard control morpholino (5′-[…]-′3) (SEQ ID NO:4), provided by Gene tools, was used as control. Three nanograms of morpholino were co-injected with 1.43 ng of SOD1 mRNA and the effect of gene knockdown on the mutant SOD1-induced axonopathy analyzed. […]
compound,measurement,setting,value
Cc1ccc(C)n1-c1ccc(C(=O)O)c(O)c1 [Compound C1],effect on mutant SOD1-induced axonopathy,[1],completely rescued the mutant SOD1-induced axonopathy
same,effect on motor axon phenotype induced by knockdown of Smn,[2],rescued the motor axon phenotype induced by knockdown of Smn
